Measurements published in patent US20100203123A1, “METHODS FOR IMPROVING COGNITIVE FUNCTION AND DECREASING HEART RATE” (MARTEK BIOSCIENCES CORPORATION, priority 2009, published 2010).

Test: Plasma Abeta and hs-CRP levels
Type: in vivo, human
Settings: about 900 mg/d, 24 weeks

Q: What does the source list for `CC/C=C\C/C=C\C/C=C\C/C=C\C/C=C\C/C=C\CCC(=O)O` [DHA, (all-Z)-4,7,10,13,16,19-docosahexaenoic acid]?
A: Abeta1-40,1-42 plasma levels, DHA versus placebo: not significantly different; hs-CRP plasma levels, DHA versus placebo: not significantly different
